Data reported in US20110136883A1, “GRANULATION OF ACTIVE PHARMACEUTICAL INGREDIENTS” (LEK PHARMACEUTICALS D.D., priority 2008, published 2011).
Some of these results come from one statement about several compounds together. For at least one compound, name, drawing or mass did not settle the structure.

Assay: Water activity of excipients
Type: physicochemical
Conditions: nonaqueous liquid excipient itself

SMILES: CC(O)CO (stereo not shown) [propylen glycol, propylene glycol]
- water activity: more than 0.7
